These are yes or no findings as the source states them, for the method shown. Some results given as binding are weak or reduced against the parent protein; the word gives no strength.
B1: myeloid differentiation protein-2 (MD-2) (natural protein, human, UniProt Q9Y6Y9 19-160, looked up)
chain: QKQYWVCNSSDASISYTYCDKMQYPISINVNPCIELKRSKGLLHIFYIPRRDLKQLYFNLYITVNTMNLPKRKEVICRGSDDDYSFCRALKGETVNTTISFSFKGIKFSKGKYKCVVEAISGSPEEMLFCLEFVILHQPNSN
notes: also called hMD-2

The chains behind the UniProt entries cited, without tags or fusion partners. Residues count along the entry.
UniProt O00206, residues 27-631: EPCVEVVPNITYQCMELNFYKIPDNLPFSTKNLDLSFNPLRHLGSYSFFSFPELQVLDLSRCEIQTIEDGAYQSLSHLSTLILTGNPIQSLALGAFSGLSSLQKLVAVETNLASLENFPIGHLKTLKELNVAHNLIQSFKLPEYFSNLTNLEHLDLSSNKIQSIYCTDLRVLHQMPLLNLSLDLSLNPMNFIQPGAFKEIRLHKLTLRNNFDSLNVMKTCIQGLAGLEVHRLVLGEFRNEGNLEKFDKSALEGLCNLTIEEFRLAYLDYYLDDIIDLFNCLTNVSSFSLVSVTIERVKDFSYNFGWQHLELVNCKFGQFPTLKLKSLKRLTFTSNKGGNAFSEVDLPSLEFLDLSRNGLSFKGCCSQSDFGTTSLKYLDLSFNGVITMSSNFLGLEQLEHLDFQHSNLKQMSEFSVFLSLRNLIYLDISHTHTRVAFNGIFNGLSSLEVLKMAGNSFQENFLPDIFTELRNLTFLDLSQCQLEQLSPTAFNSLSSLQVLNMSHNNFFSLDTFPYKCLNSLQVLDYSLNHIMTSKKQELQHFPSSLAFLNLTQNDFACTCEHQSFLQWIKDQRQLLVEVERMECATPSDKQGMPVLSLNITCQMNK

Assays:
[1] = molecular target: B1; test: ELISA; 200 ng MD-2 (or BSA) coated on 96-well plates, blocked with 1% BSA; 40 µg/ml Fc, TFE, TOY3 or TOY8 for 1 hr with or without FITC-labeled LPS (10 µg/ml); HRP-conjugated anti-Fc antibody; absorbance and fluorescence (IVIS) read; both purified
[2] = molecular target: TLR4 full-length ectodomain fused to IgG-Fc (TFE) (human) (UniProt O00206); test: solid-phase binding of FITC-LPS, fluorescence by IVIS imaging; 200 ng Fc, TFE, TOY3 or TOY8 coated on 96-well plates; FITC-labeled LPS (10 µg/ml) with or without MD-2 (1 µg/ml) for 2 hr; fluorescence of captured FITC-LPS; both purified

Row | binding [1] | binding [2] | Molecule
1 | binds | – | TLR4 full-length ectodomain fused to IgG-Fc (TFE) (from UniProt O00206 27-631) (Fc fusion)
2 | – | binds | B1
